The test system of the assay is primary human hepatic stellate cells (donor 1). Nature of the assay: percent Bodipy-positive cells; higher = more lipid droplet accumulation. The conditions noted are these: 48 h.
The mark [1] stands for this setting: library stock concentration: 10 mM.
The mark [2] stands for this setting: library stock concentration: 80 uM.
Setting [3] is: library stock concentration: 400 uM.
Setting [4] is: library stock concentration: 3.33 mM.
[5] abbreviates: library stock concentration: 1 mM.

The text below walks through data of the supplement of paper PMC9135407.

Several values for one entry are separate records, joined by “and”; a condition that tells them apart may be missing. Equal entries are not always repeated. Structures can show the parent of a compound that is named as a salt. ± gives the standard deviation of the averaged measurements. This is one part of the list. Baselines shift from plate to plate; read single values as rough.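 Assay uses culture-activated primary human stellate myofibroblasts; lipid droplet recovery indicates inactivation. Measured: proportion of Hoechst-counted cells over a plate-specific Bodipy cutoff, duplicate wells, DMSO and nortriptyline as per-plate negative and positive controls. A hit scores, control-normalized, above the plate's top-tenth-percentile nortriptyline wells or ranks among its three best wells. Final well concentrations not reported.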

`Nc1nc(Nc2ccccc2)nc2c1ncn2[C@@H]1O[C@H](CO)[C@@H](O)[C@H]1O`: the “percent Bodipy-positive cells” value under setting [1] was 6.29 ± 1.8%. On to `CC(C)(C)NCC(O)COc1cccc2c1CC(O)C(O)C2` (centres undefined) [Nadolol], for which the “percent Bodipy-positive cells” value came to 7.32 ± 0.75%. Besides, under setting [1], the “percent Bodipy-positive cells” value is 55.5 ± 17%. For the molecule `Cc1nc2ccc(-n3ncc(C(=O)c4cc5ccccc5[nH]4)c3N)cc2[nH]1`, the “percent Bodipy-positive cells” value under setting [1] was determined as 74.1 ± 6%.

In the case of `Cc1cccc(C)c1NC(=O)C[N+](C)(C)C`, the “percent Bodipy-positive cells” value under setting [1] was determined as 9.84 ± 0.12%. Turning to `O=C(OCCN1CCCCC1)c1c[nH]c2ccccc12`, the “percent Bodipy-positive cells” value under setting [1] was determined as 25.6 ± 3%.

Take `C[C@H](CCC(=O)NCCS(=O)(=O)O)[C@H]1CC[C@H]2[C@@H]3[C@H](O)C[C@@H]4C[C@H](O)CC[C@]4(C)[C@H]3C[C@H](O)[C@]12C` [Sodium Taurocholate hydrate]: the “percent Bodipy-positive cells” value under setting [1] amounted to 35.7 ± 5.5%.

For the molecule `Nc1ccccc1NC(=O)c1ccc(CNc2nccc(-c3cccnc3)n2)cc1` [Mocetinostat (MGCD0103)], under setting [1], the “percent Bodipy-positive cells” value worked out at 80.1 ± 7.3%. With `Nc1ccccc1NC(=O)c1ccc(CNc2nccc(-c3cccnc3)n2)cc1` [Mocetinostat], the “percent Bodipy-positive cells” value was determined as 53.3 ± 13% under setting [2] and 62.9 ± 8.1% under setting [3]. Take `Cc1ccc(S(=O)(=O)/C=C/C#N)cc1`: the “percent Bodipy-positive cells” value by setting is: under setting [2], 14.7 ± 1.6%; under setting [3], 7.19 ± 2%; (library stock concentration: 2 mM) 98.9 ± 1.6%; under setting [4], 99.42 ± 0.82%; (library stock concentration: 24.1 mM) 72.6 ± 10%. `O=C(c1cccnc1)N1CCOCC1`: the “percent Bodipy-positive cells” value under setting [1] came to 15.8 ± 4%.

Turning to `CNCCCC12CCC(c3ccccc31)c1ccccc12.Cl` [Maprotiline hydrochloride], under setting [1], the “percent Bodipy-positive cells” value came to 95.5 ± 1.1%. As to `Cn1sc(=O)n(Cc2ccccc2)c1=O` [GSK-3b Inhibitor I], under setting [4], the “percent Bodipy-positive cells” value turned out to be 13.4 ± 3.7%. With `CC(C)Cn1c(=O)n(C)c(=O)c2nc[nH]c21` [Isobutylmethylxanthine], the “percent Bodipy-positive cells” value (library stock concentration: 9 mM) was 7.54 ± 3.2%. Take `COc1cc2c(cc1Cc1cccc(Cl)c1F)c(=O)c(C(=O)O)cn2[C@H](CO)C(C)C` [Elvitegravir (GS-9137, JTK-303)]: the “percent Bodipy-positive cells” value is, setting by setting: under setting [4], 18.5 ± 6.7%; under setting [1], 13.5 ± 3.3%. For `COc1ccc2cc3[n+](cc2c1OC)CCc1cc2c(cc1-3)OCO2` [Berberine chloride], the “percent Bodipy-positive cells” value is 29.3 ± 6.9%. Also, the “percent Bodipy-positive cells” value under setting [1] turned out to be 25.8 ± 9.5%. For the molecule `COc1ccc2cc3[n+](cc2c1OC)CCc1cc2c(cc1-3)OCO2` [Berberine HCl], the “percent Bodipy-positive cells” value by setting is: under setting [4], 16.6 ± 14%; under setting [1], 10.7 ± 6.2%. In the case of `CC[C@@H]1Cc2cc(O)ccc2C2=C1c1ccc(O)cc1C[C@H]2CC` [(R,R)-cis-Diethyl tetrahydro-2,8-chrysenediol], the “percent Bodipy-positive cells” value under setting [1] was 46.2 ± 8.7%. The same measure, in the same setting: the figure for `Nc1ncnc2c1ncn2[C@@H]1O[C@H](CO)C[C@H]1O` [Cordycepin] is 5.99 ± 0.82%. For `CCCCCCCCCCCCCCCCOC[C@H](COP(=O)([O-])OCC[N+](C)(C)C)OC(=O)CCC` [Butanoyl PAF], the “percent Bodipy-positive cells” value under setting [5] was found to be 8.07 ± 1.4%. On to `Cc1c2oc3c(C)ccc(C(=O)N[C@@H]4C(=O)N[C@H](C(C)C)C(=O)N5CCC[C@H]5C(=O)N(C)CC(=O)N(C)[C@@H](C(C)C)C(=O)O[C@@H]4C)c3nc-2c(C(=O)N[C@@H]2C(=O)N[C@H](C(C)C)C(=O)N3CCC[C@H]3C(=O)N(C)CC(=O)N(C)[C@@H](C(C)C)C(=O)O[C@@H]2C)c(N)c1=O` [Dactinomycin], for which the “percent Bodipy-positive cells” value reads like this: (library stock concentration: 1.6 mM) 29.1 ± 2.6%; under setting [1], 72.8 ± 3.1%. Consider `Cc1c2oc3c(C)ccc(C(=O)N[C@@H]4C(=O)N[C@H](C(C)C)C(=O)N5CCC[C@H]5C(=O)N(C)CC(=O)N(C)[C@@H](C(C)C)C(=O)O[C@@H]4C)c3nc-2c(C(=O)N[C@@H]2C(=O)N[C@H](C(C)C)C(=O)N3CCC[C@H]3C(=O)N(C)CC(=O)N(C)[C@@H](C(C)C)C(=O)O[C@@H]2C)c(N)c1=O` [Actinomycin D], for which the “percent Bodipy-positive cells” value was 47.98 ± 0.41%. For the molecule `Cc1c2oc3c(C)ccc(C(=O)N[C@@H]4C(=O)N[C@H](C(C)C)C(=O)N5CCC[C@H]5C(=O)N(C)CC(=O)N(C)[C@@H](C(C)C)C(=O)O[C@@H]4C)c3nc-2c(C(=O)N[C@@H]2C(=O)N[C@H](C(C)C)C(=O)N3CCC[C@H]3C(=O)N(C)CC(=O)N(C)[C@@H](C(C)C)C(=O)O[C@@H]2C)c(N)c1=O`, under setting [1], the “percent Bodipy-positive cells” value stood at 70.3 ± 3.6%.

For the molecule `CCSC(N)=Nc1ccc(C(F)(F)F)cc1`, the “percent Bodipy-positive cells” value under setting [5] was 7.4 ± 0.64%. Take `COc1ccc2c(c1)c(CC(=O)OCC(=O)O)c(C)n2C(=O)c1ccc(Cl)cc1` [Acemetacin]: the “percent Bodipy-positive cells” value was 23.4 ± 3.5%. The “percent Bodipy-positive cells” value under setting [4] came out at 6.42 ± 2.5%. The “percent Bodipy-positive cells” value (library stock concentration: 4.8 mM) came to 9.54 ± 5.6%. Further, the “percent Bodipy-positive cells” value under setting [1] is 9.05% and 18.1%. In the case of `NC(=O)c1cc[n+](CC2=C(C(=O)[O-])N3C(=O)[C@@H](NC(=O)Cc4cccs4)[C@H]3SC2)cc1` [Cefalonium], the “percent Bodipy-positive cells” value worked out at 7.92 ± 2.5%. In the case of `Cc1nccn1CC1CCc2c(c3ccccc3n2C)C1=O` (centres undefined) [Ondansetron], the “percent Bodipy-positive cells” value is 15.3 ± 8.3% (library stock concentration: 6.8 mM) and 51.2 ± 3.6% under setting [1]. Turning to `Cc1nccn1CC1CCc2c(c3ccccc3n2C)C1=O` (centres undefined) [Ondansetron HCl], the “percent Bodipy-positive cells” value is, setting by setting: under setting [4], 7.38 ± 5.4%; under setting [1], 17.7 ± 1.7%.

As for `Cc1nccn1CC1CCc2c(c3ccccc3n2C)C1=O` (centres undefined), under setting [1], the “percent Bodipy-positive cells” value amounted to 14.8 ± 1.8%.

As to `Cc1nccn1CC1CCc2c(c3ccccc3n2C)C1=O` (centres undefined) [Ondansetron Hydrochloride], the “percent Bodipy-positive cells” value was 14.7 ± 7.5%. Turning to `CC(=O)NCCCCCCNC(C)=O`, the “percent Bodipy-positive cells” value under setting [1] came out at 7.24 ± 2%. Take `O=C1C(O)=C(O)C(=O)C(O)=C1O` [Tetrahydroxy-1,4-quinone monohydrate]: the “percent Bodipy-positive cells” value came out at 10.1 ± 1.1%.

`O=C1C(O)=C(O)C(=O)C(O)=C1O` [Tetroquinone]: the “percent Bodipy-positive cells” value by setting is: under setting [1], 24.4 ± 5.7%; (library stock concentration: 11.6 mM) 10.5 ± 1.7%. As for `O=C(NCCCNc1nc(Nc2cccc(NC(=O)N3CCCC3)c2)ncc1I)c1cccs1`, the “percent Bodipy-positive cells” value under setting [1] came out at 82.3 ± 1.7%.
